Experimental data reported in patent EP1200093B1, “USE OF 2-AMINO-4-(4-FLUORONAPHTH-1-YL)-6-ISOPROPYLPYRIMIDINE IN THE TREATMENT OF GI DISORDERS” (priority 1999, dated 2001).

Amino acid sequences for entries named in this document (tags omitted).
UniProt P41595, whole entry: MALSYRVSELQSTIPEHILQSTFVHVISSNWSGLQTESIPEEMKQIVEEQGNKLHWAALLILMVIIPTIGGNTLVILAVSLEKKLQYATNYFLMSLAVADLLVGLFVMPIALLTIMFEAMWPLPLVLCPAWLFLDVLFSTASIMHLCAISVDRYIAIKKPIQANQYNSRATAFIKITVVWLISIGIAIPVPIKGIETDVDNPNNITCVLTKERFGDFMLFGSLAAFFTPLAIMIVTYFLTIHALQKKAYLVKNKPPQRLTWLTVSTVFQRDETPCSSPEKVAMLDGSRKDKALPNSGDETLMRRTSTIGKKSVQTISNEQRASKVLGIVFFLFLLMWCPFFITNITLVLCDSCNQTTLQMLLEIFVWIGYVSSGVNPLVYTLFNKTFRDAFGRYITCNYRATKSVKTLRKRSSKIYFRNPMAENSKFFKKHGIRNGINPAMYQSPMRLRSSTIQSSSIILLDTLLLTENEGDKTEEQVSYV

Target: T1, 5-HT receptor in human colon longitudinal muscle (Homo sapiens, UniProt P41595)
T1 construct: Longitudinal muscle strips (2mm wide by 20mm long) were then cut from the tissue between the taenia coli; from tissue; host or cells: human colon longitudinal muscle strips, electrically stimulated
Assay type: cell-based
Conditions: antagonism of 5-HT in electrically-stimulated strips; at least 3 donors (RS127445: n>4 donors)

SMILES: CC[C@@H](CO)NC(=O)[C@@H]1C=C2c3cccc4c3c(cn4C)C[C@H]2N(C)C1 [Methysergide]
- Affinity (pKB) at the 5-HT receptor in human colon longitudinal muscle: NSA at -9M
